# According to the supplement of paper PMC8728848:
# This is one part of the list.
# B1: Clec12b (Mus musculus), Q149M0 (protein)
# chain: MSDEVTYATLMLQDSARVRGNQDGNNLRKEGHPAQSSLWRGAALSLMTLCLVLVTGLVTLATMFLQVSNDINSDSEKLSQLQKSIHPQQDNLSESLNSSRKSLTEESLQSQISALLERQEQMATKLCKEFLIHASDHKCNPCPKTWQWYGNSCYYFSINEEKSWSDSRKDCIDKNATLVKIDSTEERDLLQSQLSLTFSFFWLGLSWNSSGRNWLWEDGSFPPPTLFSDKELASFNGSRDCAYFERGNIYASRCSAEIPWICEKTASLVKTEDLD
# Assays:
# Test in all cases: glycan array binding signal (z-score within array); higher = stronger binding
# Conditions in all cases: glycan notation: IUPAC condensed, linker removed
# [1] = target: Neu5Ac(a2-3)Gal(b1-4)GlcNAc(b1-3)Gal(b1-4)GlcNAc(b1-2)Man(a1-3)[Neu5Ac(a2-3)Gal(b1-4)GlcNAc(b1-3)Gal(b1-4)GlcNAc(b1-2)Man(a1-6)]Man(b1-4)GlcNAc(b1-4)GlcNAc
# Summary of the method: (§1)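 The Consortium for Functional Glycomics database supplied 3228 glycan arrays, of which those lacking an available protein sequence were dropped. The binding signal, a within-array Z-score, was averaged across arrays of the same protein sequence and across linkers. Negative scores can be read as non-binding.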
# [2] = target: Neu5Ac(a2-3)Gal(b1-4)GlcNAc(b1-3)Gal(b1-4)GlcNAc(b1-3)Gal(b1-4)GlcNAc
# Summary of the method: as §1
# [3] = target: Neu5Ac(a2-3)Gal(b1-4)GlcNAc(b1-3)Gal(b1-4)GlcNAc(b1-3)Gal(b1-4)GlcNAc(b1-2)Man(a1-3)[Neu5Ac(a2-3)Gal(b1-4)GlcNAc(b1-3)Gal(b1-4)GlcNAc(b1-3)Gal(b1-4)GlcNAc(b1-2)Man(a1-6)]GalNAc
# Summary of the method: as §1
# [4] = target: Neu5Ac(a2-3)Gal(b1-4)GlcNAc(b1-3)Gal(b1-4)GlcNAc(b1-3)GalNAc
# Summary of the method: as §1
# [5] = target: Neu5Ac(a2-3)Gal(b1-4)GlcNAc(b1-3)Gal(b1-4)GlcNAc(b1-3)[Neu5Ac(a2-3)Gal(b1-4)GlcNAc(b1-3)Gal(b1-4)GlcNAc(b1-6)]GalNAc
# Summary of the method: as §1
# [6] = target: Neu5Ac(a2-3)Gal(b1-4)GlcNAc(b1-3)Gal(b1-4)GlcNAc(b1-6)[Gal(b1-3)]GalNAc
# Summary of the method: as §1
# [7] = target: Neu5Ac(a2-3)Gal(b1-4)GlcNAc(b1-3)Gal(b1-4)[Fuc(a1-3)]GlcNAc
# Summary of the method: as §1
# [8] = target: Neu5Ac(a2-3)Gal(b1-4)GlcNAc(b1-3)GalNAc
# Summary of the method: as §1
# [9] = target: Neu5Ac(a2-3)Gal(b1-4)GlcNAc(b1-3)[Neu5Ac(a2-3)Gal(b1-4)GlcNAc(b1-6)]GalNAc
# Summary of the method: as §1
# [10] = target: Neu5Ac(a2-3)Gal(b1-4)GlcNAc(b1-6)GalNAc
# Summary of the method: as §1
# [11] = target: Neu5Ac(a2-3)Gal(b1-4)GlcNAc(b1-6)[Gal(b1-3)]GalNAc
# Summary of the method: as §1
# [12] = target: Neu5Ac(a2-3)Gal(b1-4)GlcNAc(b1-6)[Neu5Ac(a2-3)Gal(b1-3)]GalNAc
# Summary of the method: as §1
# [13] = target: Neu5Ac(a2-3)Gal(b1-4)GlcNAc6S
# Summary of the method: as §1
# [14] = target: Neu5Ac(a2-3)Gal(b1-4)[Fuc(a1-3)]GlcNAc
# Summary of the method: as §1
# [15] = target: Neu5Ac(a2-3)Gal(b1-4)[Fuc(a1-3)]GlcNAc(b1-2)Man
# Summary of the method: as §1
# [16] = target: Neu5Ac(a2-3)Gal(b1-4)[Fuc(a1-3)]GlcNAc(b1-3)Gal
# Summary of the method: as §1
# [17] = target: Neu5Ac(a2-3)Gal(b1-4)[Fuc(a1-3)]GlcNAc(b1-3)Gal(b1-4)GlcNAc
# Summary of the method: as §1
# [18] = target: Neu5Ac(a2-3)Gal(b1-4)[Fuc(a1-3)]GlcNAc(b1-3)Gal(b1-4)[Fuc(a1-3)]GlcNAc(b1-3)Gal(b1-4)[Fuc(a1-3)]GlcNAc
# Summary of the method: as §1
# [19] = target: Neu5Ac(a2-3)Gal(b1-4)[Fuc(a1-3)]GlcNAc(b1-3)GalNAc
# Summary of the method: as §1
# [20] = target: Neu5Ac(a2-3)Gal(b1-4)[Fuc(a1-3)]GlcNAc(b1-6)[Gal(b1-3)]GalNAc
# Summary of the method: as §1
# [21] = target: Neu5Ac(a2-3)Gal(b1-4)[Fuc(a1-3)]GlcNAc(b1-6)[Neu5Ac(a2-3)Gal(b1-3)]GalNAc
# Summary of the method: as §1
# [22] = target: Neu5Ac(a2-3)Gal(b1-4)[Fuc(a1-3)]GlcNAc6S
# Summary of the method: as §1
# [23] = target: Neu5Ac(a2-3)Gal6S(b1-4)GlcNAc
# Summary of the method: as §1
# [24] = target: Neu5Ac(a2-3)Gal6S(b1-4)[Fuc(a1-3)]GlcNAc
# Summary of the method: as §1
# [25] = target: Neu5Ac(a2-3)GalNAc
# Summary of the method: as §1
# [26] = target: Neu5Ac(a2-3)GalNAc(b1-4)GlcNAc
# Summary of the method: as §1
# [27] = target: Neu5Ac(a2-3)[GalNAc(b1-4)]Gal(b1-4)Glc
# Summary of the method: as §1
# [28] = target: Neu5Ac(a2-3)[GalNAc(b1-4)]Gal(b1-4)GlcNAc
# Summary of the method: as §1
# [29] = target: Neu5Ac(a2-3)[GalNAc(b1-4)]Gal(b1-4)GlcNAc(b1-3)GalNAc
# Summary of the method: as §1
# [30] = target: Neu5Ac(a2-3)[Neu5Ac(a2-6)]GalNAc
# Summary of the method: as §1
# [31] = target: Neu5Ac(a2-6)Gal
# Summary of the method: as §1
# [32] = target: Neu5Ac(a2-6)Gal(b1-3)GlcNAc(b1-3)[Gal(b1-4)GlcNAc(b1-6)]Gal(b1-4)Glc
# Summary of the method: as §1
# [33] = target: Neu5Ac(a2-6)Gal(b1-4)Glc
# Summary of the method: as §1
# [34] = target: Neu5Ac(a2-6)Gal(b1-4)GlcNAc
# Summary of the method: as §1
# [35] = target: Neu5Ac(a2-6)Gal(b1-4)GlcNAc(b1-2)Man
# Summary of the method: as §1
# [36] = target: Neu5Ac(a2-6)Gal(b1-4)GlcNAc(b1-2)Man(a1-3)Man(b1-4)GlcNAc(b1-4)GlcNAc
# Summary of the method: as §1
# [37] = target: Neu5Ac(a2-6)Gal(b1-4)GlcNAc(b1-2)Man(a1-3)[Gal(b1-4)GlcNAc(b1-2)Man(a1-6)]Man(b1-4)GlcNAc(b1-4)GlcNAc
# Summary of the method: as §1
# [38] = target: Neu5Ac(a2-6)Gal(b1-4)GlcNAc(b1-2)Man(a1-3)[GlcNAc(b1-2)Man(a1-6)]Man(b1-4)GlcNAc(b1-4)GlcNAc
# Summary of the method: as §1
binder,measurement,setting,value
B1,glycan array binding signal (z-score),[1],-0.516
same,glycan array binding signal (z-score),[2],-0.487
same,glycan array binding signal (z-score),[3],1.15
same,glycan array binding signal (z-score),[4],-0.767
same,glycan array binding signal (z-score),[5],-0.513
same,glycan array binding signal (z-score),[6],-0.721
same,glycan array binding signal (z-score),[7],-0.055
same,glycan array binding signal (z-score),[8],-0.623
same,glycan array binding signal (z-score),[9],0.725
same,glycan array binding signal (z-score),[10],2.19
same,glycan array binding signal (z-score),[11],-0.442
same,glycan array binding signal (z-score),[12],1.17
same,glycan array binding signal (z-score),[13],-0.702
same,glycan array binding signal (z-score),[14],-0.514
same,glycan array binding signal (z-score),[15],-0.749
same,glycan array binding signal (z-score),[16],-0.097
same,glycan array binding signal (z-score),[17],-0.279
same,glycan array binding signal (z-score),[18],-0.548
same,glycan array binding signal (z-score),[19],0.688
same,glycan array binding signal (z-score),[20],2.54
same,glycan array binding signal (z-score),[21],2.04
same,glycan array binding signal (z-score),[22],-0.325
same,glycan array binding signal (z-score),[23],-0.451
same,glycan array binding signal (z-score),[24],-0.642
same,glycan array binding signal (z-score),[25],-0.487
same,glycan array binding signal (z-score),[26],-0.65
same,glycan array binding signal (z-score),[27],0.035
same,glycan array binding signal (z-score),[28],-0.538
same,glycan array binding signal (z-score),[29],-0.509
same,glycan array binding signal (z-score),[30],0.196
same,glycan array binding signal (z-score),[31],-0.669
same,glycan array binding signal (z-score),[32],-0.06
same,glycan array binding signal (z-score),[33],-0.45
same,glycan array binding signal (z-score),[34],-0.563
same,glycan array binding signal (z-score),[35],-0.491
same,glycan array binding signal (z-score),[36],-0.558
same,glycan array binding signal (z-score),[37],-0.254
same,glycan array binding signal (z-score),[38],-0.701

# 2 neighbouring entries already listed, for reference:
binder,measurement,setting,value
B1,glycan array binding signal (z-score),[37],-0.254
same,glycan array binding signal (z-score),[38],-0.701
